Values from PubChem BioAssay AID1117269 (University of Michigan, 2014).
The deposit covers 714 reagents; this is an unselected part. 49 of them (6.9%) were called active. 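Active means a hit in at least one line; per-line hit columns show which; some siRNA pools appear more than once.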 The record does not give: the amount of reagent.

Purpose: 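Which kinase knockdowns increase BTR reporter light after TGF-beta stimulation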 (primary screen)
Cells: human A549 lung cancer and 1833 breast cancer (MDA-MB-231-derived) cell lines carrying a stable BTR luciferase reporter
Knock-down reagent: siRNA pool against human genes
Timing: 72 h after transfection, then 1 h TGF-beta before the read
Treatment: TGF-beta 10 ng/mL added one hour before luciferin and read-out
Measurement: 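BTR reporter bioluminescence as fold change relative to non-targeting siRNA, averaging triplicates per line; knockdown for 72 h, then TGF-beta at 10 ng/mL 1 h prior to reading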
Reading the numbers: fold over scrambled siRNA, A549 and fold over scrambled siRNA, 1833: higher = more reporter light, weaker TGF-beta receptor signalling
Call rule: 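Hit in either line counts as active; per-line hits lie above an upper limit from quartiles of averaged log fold values, in plate and screen-wide analyses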
Calls: active = hit in at least one line; inactive = hit in neither line

The opening 4 entries as a preview:
no.	target	fold over scrambled siRNA, A549	fold over scrambled siRNA, 1833	hit in A549	hit in 1833	Outcome
1	CERT1	1.19	2.12	not a hit in A549	not a hit in 1833	inactive
2	LATS2	2.07	5.1	not a hit in A549	not a hit in 1833	inactive
3	LIMK2	1.82	4.19	not a hit in A549	not a hit in 1833	inactive
4	PDXK	1.67	5.73	not a hit in A549	not a hit in 1833	inactive

The list itself, from the start:
no.	target	fold over scrambled siRNA, A549	fold over scrambled siRNA, 1833	hit in A549	hit in 1833	Outcome
1	CERT1	1.19	2.12	not a hit in A549	not a hit in 1833	inactive
2	LATS2	2.07	5.1	not a hit in A549	not a hit in 1833	inactive
3	LIMK2	1.82	4.19	not a hit in A549	not a hit in 1833	inactive
4	PDXK	1.67	5.73	not a hit in A549	not a hit in 1833	inactive
5	PRKCD	0.429	3.1	not a hit in A549	not a hit in 1833	inactive
6	RPS6KC1	3.14	4.63	not a hit in A549	not a hit in 1833	inactive
7	IGF1R	2.1	0.429	not a hit in A549	not a hit in 1833	inactive
8	HUS1	1.29	2.14	not a hit in A549	not a hit in 1833	inactive
9	MAGI3	1.14	3.93	not a hit in A549	not a hit in 1833	inactive
10	PSKH2	2.43	2.05	not a hit in A549	not a hit in 1833	inactive
11	PAK6	2.04	4.57	not a hit in A549	not a hit in 1833	inactive
12	PIP5K1B	1.59	3.53	not a hit in A549	not a hit in 1833	inactive
13	PAK2	1.93	1.44	not a hit in A549	not a hit in 1833	inactive
14	BRDT	10.4	1.19	hit in A549	not a hit in 1833	active
15	STK33	3.57	7.04	not a hit in A549	not a hit in 1833	inactive
16	MAST3	3.21	2.05	not a hit in A549	not a hit in 1833	inactive
17	STK24	2.01	2.2	not a hit in A549	not a hit in 1833	inactive
18	EIF2AK3	3.44	2.78	not a hit in A549	not a hit in 1833	inactive
19	MPP1	5.15	2.81	not a hit in A549	not a hit in 1833	inactive
20	PANK2	0.939	1.79	not a hit in A549	not a hit in 1833	inactive
21	RELA	1.75	1.62	not a hit in A549	not a hit in 1833	inactive
22	VRK1	2.66	0.852	not a hit in A549	not a hit in 1833	inactive
23	CSNK1G1	1.05	2.33	not a hit in A549	not a hit in 1833	inactive
24	NEK2	4.07	1.07	not a hit in A549	not a hit in 1833	inactive
25	EFNA5	1.52	1.79	not a hit in A549	not a hit in 1833	inactive
26	FGFR3	1.21	0.933	not a hit in A549	not a hit in 1833	inactive
27	TLK1	2.29	3.48	not a hit in A549	not a hit in 1833	inactive
28	TNK1	1.57	5.47	not a hit in A549	not a hit in 1833	inactive
29	MLKL	4.1	6.51	not a hit in A549	not a hit in 1833	inactive
30	HCK	1.68	0.733	not a hit in A549	not a hit in 1833	inactive
31	GUCY2EP	3.59	1.3	not a hit in A549	not a hit in 1833	inactive
32	DDR1	3.23	1.22	not a hit in A549	not a hit in 1833	inactive
33	NADK	1.46	5.67	not a hit in A549	not a hit in 1833	inactive
34	GRK2	0.565	0.786	not a hit in A549	not a hit in 1833	inactive
35	DBF4	1.22	4.26	not a hit in A549	not a hit in 1833	inactive
36	TJP2	1.63	2.12	not a hit in A549	not a hit in 1833	inactive
37	AMHR2	1.29	2.14	not a hit in A549	not a hit in 1833	inactive
38	MAP3K7	3.52	5.57	not a hit in A549	not a hit in 1833	inactive
39	NTRK3	2.2	3.39	not a hit in A549	not a hit in 1833	inactive
